Source: PubChem BioAssay AID1224830 (NIAID, 2016)
This is a random part of about 18,000 reagents tested. Of all reagents, about 2,900 (16%) got an active call. 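Calls are made per well; low scores hint the gene aids the LPS response, high scores that it dampens it.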 Repeated entries: four replicate wells of each siRNA pool.

Assay: 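Genes whose knock-down alters the TNF-alpha reporter response to LPS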 (primary screen)
Cells: human THP-1 monocytic leukaemia cells, TNF dual-luciferase reporter clone, PMA-differentiated to macrophage-like cells
Reagents: siRNA pool against human genes, 50 nM
Duration: LPS for 4 h, given about 3 days after siRNA transfection
Treatment: bacterial LPS (TLR4 ligand), 10 ng/ml
Read-out: 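Ratio of firefly to renilla light, scaled to the plate median and expressed as a robust z-score per replicate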
Reading the numbers: TNF reporter robust z-score: higher = stronger TNF reporter response to LPS
Rule for the call: 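a well is active when its z-score exceeds 2.8 or falls below -1.5; control wells carry no call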

| target gene | TNF reporter robust z-score | Call |
| --- | --- | --- |
| LZTR1 | -0.1 | inactive |
| LZTR1 | -0.54 | inactive |
| LZTR1 | 0.88 | inactive |
| LZTR1 | -0.13 | inactive |
| SLC7A6OS | 1 | inactive |
| SLC7A6OS | -0.03 | inactive |
| SLC7A6OS | 2.23 | inactive |
| SLC7A6OS | -0.41 | inactive |
| DUOX2 | -0.92 | inactive |
| DUOX2 | 0.76 | inactive |
| DUOX2 | 0.48 | inactive |
| DUOX2 | 1.5 | inactive |
| HNRNPAB | -1.29 | inactive |
| HNRNPAB | 0.44 | inactive |
| HNRNPAB | 0.34 | inactive |
| HNRNPAB | 0.41 | inactive |
| RSPH9 | -0.45 | inactive |
| RSPH9 | -0.96 | inactive |
| RSPH9 | -1.25 | inactive |
| RSPH9 | -0.14 | inactive |
| USP32 | -0.76 | inactive |
| USP32 | -0.84 | inactive |
| USP32 | -0.57 | inactive |
| ARHGDIG | 1.75 | inactive |
| ARHGDIG | 0 | inactive |
| ARHGDIG | -0.09 | inactive |
| ARHGDIG | 0.16 | inactive |
| SRSF2 | -1.1 | inactive |
| SRSF2 | -1 | inactive |
| SRSF2 | -1.24 | inactive |
| SRSF2 | -1.09 | inactive |
| PLCB1 | 0.74 | inactive |
| PLCB1 | -0.57 | inactive |
| PLCB1 | 1.01 | inactive |
| PLCB1 | -0.04 | inactive |
| OR8G1 | -0.05 | inactive |
| OR8G1 | 0.46 | inactive |
| OR8G1 | 1.44 | inactive |
| OR8G1 | -0.26 | inactive |
| DET1 | -1.67 | active |
| DET1 | -0.59 | inactive |
| DET1 | -1.34 | inactive |
| DET1 | -0.45 | inactive |
| ORMDL3 | 0.24 | inactive |
| ORMDL3 | -0.89 | inactive |
| ORMDL3 | -0.59 | inactive |
| ORMDL3 | -0.17 | inactive |
